The source of these data is PMC11321679.

Weaker means in comparison with the reference protein, sequence or condition of that experiment. For at least one entry, the source does not settle the construct or the ends of the probe.

The data set deals with human alpha-thrombin (human). The data set can be described thus: thrombin activity inhibition (light scattering). As to conditions: Thrombin 0.75 U/mL preincubated with aptamer, fibrinogen 1.25 mg/mL, scattering at 650 nm; commercial protein.

Take “AGTCCGTGGTAGGGCAGGTTGGGGTGACTAAAAAAAAAAAAAAAAAAAA / GGTTGGTGTGGTTGGTTTTTTTTTTTTTTTTTTTT [HD22(20A)-HD1(20T)]”: the binding result is “binds more weakly”.

For “AAAAAAAAAAAAAAAAAAAAGGTTGGTGTGGTTGG / TTTTTTTTTTTTTTTTTTTTTCAGTGGGGTTGGACGGGATGGTGCCTGA [HD1(20A)-HD22(20T)]”, the binding result is reported as “binds more weakly”.
